The supplement of paper PMC8728848
This is one part of the list.

Experiments:
Assay in all cases: glycan array binding signal (z-score within array); higher = stronger binding
Settings in all cases: glycan notation: IUPAC condensed, linker removed
Fuc(a1-2)Gal = molecular target: Fuc(a1-2)Gal
How it was run: (§1)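 The binding signal is a Z-score computed within each array and averaged over linkers. Arrays of the same protein sequence at different concentrations or buffers were also averaged together. Data originate from 3228 arrays in the Consortium for Functional Glycomics database, kept only where the protein sequence was available.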

Fuc(a1-2)Gal(b1-3)GalNAc = molecular target: Fuc(a1-2)Gal(b1-3)GalNAc
How it was run: as §1

[1] = molecular target: Fuc(a1-2)Gal(b1-3)GalNAc(a1-3)[Fuc(a1-2)]Gal(b1-4)Glc
How it was run: as §1

[2] = molecular target: Fuc(a1-2)Gal(b1-3)GalNAc(a1-3)[Fuc(a1-2)]Gal(b1-4)GlcNAc
How it was run: as §1

[3] = molecular target: Fuc(a1-2)Gal(b1-3)GalNAc(b1-3)Gal
How it was run: as §1

[4] = molecular target: Fuc(a1-2)Gal(b1-3)GalNAc(b1-3)Gal(a1-4)Gal(b1-4)Glc
How it was run: as §1

[5] = molecular target: Fuc(a1-2)Gal(b1-3)GalNAc(b1-4)[Neu5Ac(a2-3)]Gal(b1-4)Glc
How it was run: as §1

Fuc(a1-2)Gal(b1-3)GlcNAc = molecular target: Fuc(a1-2)Gal(b1-3)GlcNAc
How it was run: as §1

[6] = molecular target: Fuc(a1-2)Gal(b1-3)GlcNAc(b1-2)Man(a1-3)[Fuc(a1-2)Gal(b1-3)GlcNAc(b1-2)Man(a1-6)]Man(b1-4)GlcNAc(b1-4)GlcNAc
How it was run: as §1

[7] = molecular target: Fuc(a1-2)Gal(b1-3)GlcNAc(b1-2)Man(a1-3)[Fuc(a1-2)Gal(b1-3)GlcNAc(b1-2)Man(a1-6)]Man(b1-4)GlcNAc(b1-4)[Fuc(a1-6)]GlcNAc
How it was run: as §1

[8] = molecular target: Fuc(a1-2)Gal(b1-3)GlcNAc(b1-3)Gal(b1-4)Glc
How it was run: as §1

[9] = molecular target: Fuc(a1-2)Gal(b1-3)GlcNAc(b1-3)GalNAc
How it was run: as §1

[10] = molecular target: Fuc(a1-2)Gal(b1-3)GlcNAc(b1-3)[Fuc(a1-2)Gal(b1-3)GlcNAc(b1-6)]GalNAc
How it was run: as §1

[11] = molecular target: Fuc(a1-2)Gal(b1-3)GlcNAc(b1-3)[Gal(b1-4)GlcNAc(b1-6)]Gal(b1-4)Glc
How it was run: as §1

[12] = molecular target: Fuc(a1-2)Gal(b1-3)GlcNAc(b1-3)[Neu5Ac(a2-6)Gal(b1-4)GlcNAc(b1-6)]Gal(b1-4)Glc
How it was run: as §1

[13] = molecular target: Fuc(a1-2)Gal(b1-3)GlcNAc6S
How it was run: as §1

[14] = molecular target: Fuc(a1-2)Gal(b1-3)[Fuc(a1-4)]GlcNAc
How it was run: as §1

[15] = molecular target: Fuc(a1-2)Gal(b1-3)[Fuc(a1-4)]GlcNAc(b1-2)Man(a1-3)[Fuc(a1-2)Gal(b1-3)[Fuc(a1-4)]GlcNAc(b1-2)Man(a1-3)]Man(b1-4)GlcNAc(b1-4)GlcNAc
How it was run: as §1

[16] = molecular target: Fuc(a1-2)Gal(b1-3)[Fuc(a1-4)]GlcNAc(b1-2)Man(a1-3)[Fuc(a1-2)Gal(b1-3)[Fuc(a1-4)]GlcNAc(b1-2)Man(a1-6)]Man(b1-4)GlcNAc(b1-4)[Fuc(a1-6)]GlcNAc(b1-4)[Fuc(a1-6)]GlcNAc
How it was run: as §1

[17] = molecular target: Fuc(a1-2)Gal(b1-3)[Fuc(a1-4)]GlcNAc(b1-3)[Fuc(a1-3)[Gal(b1-4)]GlcNAc(b1-6)]Gal(b1-4)Glc
How it was run: as §1

[18] = molecular target: Fuc(a1-2)Gal(b1-3)[Fuc(a1-4)]GlcNAc(b1-3)[Gal(b1-4)GlcNAc(b1-6)]Gal(b1-4)Glc
How it was run: as §1

Fuc(a1-2)Gal(b1-4)Glc = molecular target: Fuc(a1-2)Gal(b1-4)Glc
How it was run: as §1

Fuc(a1-2)Gal(b1-4)Glc6S = molecular target: Fuc(a1-2)Gal(b1-4)Glc6S
How it was run: as §1

Fuc(a1-2)Gal(b1-4)GlcNAc = molecular target: Fuc(a1-2)Gal(b1-4)GlcNAc
How it was run: as §1

[19] = molecular target: Fuc(a1-2)Gal(b1-4)GlcNAc(b1-2)Man
How it was run: as §1

[20] = molecular target: Fuc(a1-2)Gal(b1-4)GlcNAc(b1-2)Man(a1-3)[Fuc(a1-2)Gal(b1-4)GlcNAc(b1-2)Man(a1-6)]Man(b1-4)GlcNAc(b1-4)GlcNAc
How it was run: as §1

[21] = molecular target: Fuc(a1-2)Gal(b1-4)GlcNAc(b1-2)Man(a1-3)[Fuc(a1-2)Gal(b1-4)GlcNAc(b1-2)Man(a1-6)]Man(b1-4)GlcNAc(b1-4)[Fuc(a1-6)]GlcNAc
How it was run: as §1

[22] = molecular target: Fuc(a1-2)Gal(b1-4)GlcNAc(b1-2)[Fuc(a1-2)Gal(b1-4)GlcNAc(b1-4)]Man(a1-3)[Fuc(a1-2)Gal(b1-4)GlcNAc(b1-2)Man(a1-6)]Man(b1-4)GlcNAc(b1-4)GlcNAc
How it was run: as §1

[23] = molecular target: Fuc(a1-2)Gal(b1-4)GlcNAc(b1-3)Gal(b1-4)GlcNAc
How it was run: as §1

[24] = molecular target: Fuc(a1-2)Gal(b1-4)GlcNAc(b1-3)Gal(b1-4)GlcNAc(b1-2)Man(a1-3)[Fuc(a1-2)Gal(b1-4)GlcNAc(b1-3)Gal(b1-4)GlcNAc(b1-2)Man(a1-6)]Man(b1-4)GlcNAc(b1-4)GlcNAc
How it was run: as §1

[25] = molecular target: Fuc(a1-2)Gal(b1-4)GlcNAc(b1-3)Gal(b1-4)GlcNAc(b1-3)Gal(b1-4)GlcNAc
How it was run: as §1

[26] = molecular target: Fuc(a1-2)Gal(b1-4)GlcNAc(b1-3)GalNAc
How it was run: as §1

[27] = molecular target: Fuc(a1-2)Gal(b1-4)GlcNAc(b1-3)[Fuc(a1-2)Gal(b1-4)GlcNAc(b1-6)]GalNAc
How it was run: as §1

[28] = molecular target: Fuc(a1-2)Gal(b1-4)GlcNAc(b1-3)[Fuc(a1-3)[Gal(b1-4)]GlcNAc(b1-6)]Gal(b1-4)Glc
How it was run: as §1

[29] = molecular target: Fuc(a1-2)Gal(b1-4)GlcNAc(b1-6)GalNAc
How it was run: as §1

[30] = molecular target: Fuc(a1-2)Gal(b1-4)GlcNAc6S
How it was run: as §1

[31] = molecular target: Fuc(a1-2)Gal(b1-4)[Fuc(a1-3)]GlcNAc
How it was run: as §1

[32] = molecular target: Fuc(a1-2)Gal(b1-4)[Fuc(a1-3)]GlcNAc(b1-2)Man(a1-3)[Fuc(a1-2)Gal(b1-4)[Fuc(a1-3)]GlcNAc(b1-2)Man(a1-6)]Man(b1-4)GlcNAc(b1-4)[Fuc(a1-6)]GlcNAc
How it was run: as §1

[33] = molecular target: Fuc(a1-2)Gal(b1-4)[Fuc(a1-3)]GlcNAc(b1-2)[Fuc(a1-2)Gal(b1-4)[Fuc(a1-3)]GlcNAc(b1-4)]Man(a1-3)[Fuc(a1-2)Gal(b1-4)[Fuc(a1-3)]GlcNAc(b1-2)Man(a1-6)]Man(b1-4)GlcNAc(b1-4)GlcNAc
How it was run: as §1

[34] = molecular target: Fuc(a1-2)Gal(b1-4)[Fuc(a1-3)]GlcNAc(b1-3)Gal(b1-4)[Fuc(a1-3)]GlcNAc
How it was run: as §1

[35] = molecular target: Fuc(a1-2)Gal(b1-4)[Fuc(a1-3)]GlcNAc(b1-3)Gal(b1-4)[Fuc(a1-3)]GlcNAc(b1-3)Gal(b1-4)[Fuc(a1-3)]GlcNAc
How it was run: as §1

[36] = molecular target: Fuc(a1-2)Gal(b1-4)[Fuc(a1-3)]GlcNAc(b1-3)GalNAc
How it was run: as §1

[37] = molecular target: Fuc(a1-2)Gal(b1-4)[Fuc(a1-3)]GlcNAc(b1-3)[Neu5Ac(a2-6)Gal(b1-4)GlcNAc(b1-6)]Gal(b1-4)Glc
How it was run: as §1

[38] = molecular target: Fuc(a1-2)Gal3S(b1-4)GlcNAc
How it was run: as §1

[39] = molecular target: Fuc(a1-2)Gal6S(b1-3)GlcNAc
How it was run: as §1

B1: Clec39 (Caenorhabditis elegans) (protein)
chain: MTSFYDNSSSSSKPVPLKTSRAQKIQILIFDNWKLILYGAISTLILVLAIMFSTLFFALPAANCDENSEPTKYYTTNAEITTTITTTNQKTTSTASSHLTTISSSATQIYSESSSSSTSQSTFTQSPPEISTTTIAPSDFSCQHGFTLVNNKCWKLVTSNQARPDADKICNGYGGATLFSIKSEQDNRAMIHFVKGQDIDFLWSGLLCSAGEPISCIWDIENGSTANYSNFADGFPNIVYGNCVYFITSGDEAGQWGNEQCGQVMNFVCELPATFQGKDGCKNNYEKSCYLRFDLNLTVPQAQNFCLEKCANLVSIHSANEVRFIMTIYDFIGEILIGALAPAQDFIYWLDGTPANYNNLKFFYNSTCVHMTVAPGMQNVGKWFTRFCTETGKFLCKRSIKNSCT
glycan array binding signal (z-score) (Fuc(a1-2)Gal): -0.254 | glycan array binding signal (z-score) (Fuc(a1-2)Gal(b1-3)GalNAc): -0.426 | glycan array binding signal (z-score) [1]: -0.415 | glycan array binding signal (z-score) [2]: 0.145 | glycan array binding signal (z-score) [3]: -1.23 | glycan array binding signal (z-score) [4]: -0.017 | glycan array binding signal (z-score) [5]: -0.371 | glycan array binding signal (z-score) (Fuc(a1-2)Gal(b1-3)GlcNAc): -0.889 | glycan array binding signal (z-score) [6]: 2.06 | glycan array binding signal (z-score) [7]: -0.245 | glycan array binding signal (z-score) [8]: -0.274 | glycan array binding signal (z-score) [9]: 1.86 | glycan array binding signal (z-score) [10]: -0.937 | glycan array binding signal (z-score) [11]: -0.284 | glycan array binding signal (z-score) [12]: -0.38 | glycan array binding signal (z-score) [13]: 0.532 | glycan array binding signal (z-score) [14]: -0.114 | glycan array binding signal (z-score) [15]: 0.733 | glycan array binding signal (z-score) [16]: 0.398 | glycan array binding signal (z-score) [17]: -0.85 | glycan array binding signal (z-score) [18]: 0.204 | glycan array binding signal (z-score) (Fuc(a1-2)Gal(b1-4)Glc): -0.435 | glycan array binding signal (z-score) (Fuc(a1-2)Gal(b1-4)Glc6S): 0.27 | glycan array binding signal (z-score) (Fuc(a1-2)Gal(b1-4)GlcNAc): -0.181 | glycan array binding signal (z-score) [19]: 0.227 | glycan array binding signal (z-score) [20]: 1.4 | glycan array binding signal (z-score) [21]: -0.766 | glycan array binding signal (z-score) [22]: 1.44 | glycan array binding signal (z-score) [23]: -1.48 | glycan array binding signal (z-score) [24]: 0.68 | glycan array binding signal (z-score) [25]: 0.752 | glycan array binding signal (z-score) [26]: -0.783 | glycan array binding signal (z-score) [27]: 0.009 | glycan array binding signal (z-score) [28]: 0.552 | glycan array binding signal (z-score) [29]: 0.715 | glycan array binding signal (z-score) [30]: -0.018 | glycan array binding signal (z-score) [31]: 0.187 | glycan array binding signal (z-score) [32]: 0.634 | glycan array binding signal (z-score) [33]: 3.52 | glycan array binding signal (z-score) [34]: 0.991 | glycan array binding signal (z-score) [35]: -0.882 | glycan array binding signal (z-score) [36]: 0.506 | glycan array binding signal (z-score) [37]: 0.751 | glycan array binding signal (z-score) [38]: 0.022 | glycan array binding signal (z-score) [39]: -0.678
